Source: publication PMC5534098
Results are given in words; binding and its absence hold for the method and conditions named. Binding seen in cells or lysates may run through a third protein. Some binding calls cover weakened binding; strength is not graded here.

Sequences of proteins named here, by UniProt entry; tags and fusion partners are left off.
UniProt O75475: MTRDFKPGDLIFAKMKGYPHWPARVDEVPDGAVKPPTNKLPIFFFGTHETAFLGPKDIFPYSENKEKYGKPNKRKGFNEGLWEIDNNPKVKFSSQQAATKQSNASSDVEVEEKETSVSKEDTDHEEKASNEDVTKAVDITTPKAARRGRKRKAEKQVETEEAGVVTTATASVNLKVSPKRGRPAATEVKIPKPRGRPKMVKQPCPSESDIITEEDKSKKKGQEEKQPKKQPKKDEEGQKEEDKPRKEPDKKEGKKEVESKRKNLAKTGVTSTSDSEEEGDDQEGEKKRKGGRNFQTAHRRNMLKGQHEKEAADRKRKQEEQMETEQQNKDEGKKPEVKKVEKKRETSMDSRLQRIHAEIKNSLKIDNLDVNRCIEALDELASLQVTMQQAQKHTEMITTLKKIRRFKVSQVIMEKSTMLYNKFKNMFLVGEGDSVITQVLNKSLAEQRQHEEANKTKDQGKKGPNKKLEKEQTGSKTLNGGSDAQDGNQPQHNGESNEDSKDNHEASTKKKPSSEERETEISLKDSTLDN
UniProt Q08945: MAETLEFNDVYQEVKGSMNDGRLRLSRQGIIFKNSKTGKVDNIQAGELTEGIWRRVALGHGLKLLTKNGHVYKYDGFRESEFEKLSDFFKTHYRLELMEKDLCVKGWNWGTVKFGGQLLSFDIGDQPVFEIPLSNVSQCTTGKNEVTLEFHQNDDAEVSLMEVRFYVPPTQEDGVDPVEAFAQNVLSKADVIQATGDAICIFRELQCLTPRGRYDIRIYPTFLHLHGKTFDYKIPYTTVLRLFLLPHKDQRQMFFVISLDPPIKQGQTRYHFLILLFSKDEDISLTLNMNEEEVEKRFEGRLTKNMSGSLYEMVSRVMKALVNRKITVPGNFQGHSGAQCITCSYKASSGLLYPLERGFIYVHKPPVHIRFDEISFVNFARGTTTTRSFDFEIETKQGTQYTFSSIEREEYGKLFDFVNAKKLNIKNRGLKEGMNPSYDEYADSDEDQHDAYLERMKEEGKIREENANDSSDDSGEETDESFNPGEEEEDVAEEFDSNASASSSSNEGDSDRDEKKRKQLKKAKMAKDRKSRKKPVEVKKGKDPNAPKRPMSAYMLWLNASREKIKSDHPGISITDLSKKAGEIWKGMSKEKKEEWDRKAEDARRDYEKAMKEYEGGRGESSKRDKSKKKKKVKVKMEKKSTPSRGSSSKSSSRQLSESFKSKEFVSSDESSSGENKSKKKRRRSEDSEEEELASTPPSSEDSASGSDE

Target: FLAG-LEDGF/p75 (UniProt O75475)
Experiment: co-IP

## SSRP1-Myc (from UniProt Q08945 1-709)
  binding: binds
